Data on nine molecules can be found in article PMC5261017.

No constants are given. Whether binding was seen depends on the method and setting. Binding seen in cells or lysates may run through a third protein. A yes stands for co-enrichment or nearness to the bait. Other partners may have been found. Tags and fused reporters may be left off the sequences shown.

The test concerns the target T1, Heme oxygenase 1 (recombinant FLAGHO-1) (human) (UniProt P09601).
T1 sequence: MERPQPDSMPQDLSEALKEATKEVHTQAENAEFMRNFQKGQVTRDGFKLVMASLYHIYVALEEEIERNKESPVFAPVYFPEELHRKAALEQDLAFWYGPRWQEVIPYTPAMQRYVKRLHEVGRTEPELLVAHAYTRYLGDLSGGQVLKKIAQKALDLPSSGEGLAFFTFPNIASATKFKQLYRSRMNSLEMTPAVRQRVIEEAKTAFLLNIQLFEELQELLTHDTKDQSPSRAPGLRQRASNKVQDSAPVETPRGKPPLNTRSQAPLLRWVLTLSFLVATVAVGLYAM
Briefly: affinity purification with mass spectrometry; PC3 cells transiently transfected with FLAGHO-1 or empty FLAG vector and treated with H2O2 (200 uM); extract in 20 mM Tris, 150 mM NaCl, 5 mM MgCl2, 0.5% NP40, pH 7.5; Flag magnetic beads 2 h at 4 °C; eluted with 3XFLAG peptide; trypsin digest, LC-ESI MS/MS; only proteins differential against the empty FLAG vector were kept.

B1: Purine-rich element binding protein A (protein, UniProt Q00577 1-322)
chain: MADRDSGSEQGGAALGSGGSLGHPGSGSGSGGGGGGGGGGGGSGGGGGGAPGGLQHETQELASKRVDIQNKRFYLDVKQNAKGRFLKIAEVGAGGNKSRLTLSMSVAVEFRDYLGDFIEHYAQLGPSQPPDLAQAQDEPRRALKSEFLVRENRKYYMDLKENQRGRFLRIRQTVNRGPGLGSTQGQTIALPAQGLIEFRDALAKLIDDYGVEEEPAELPEGTSLTVDNKRFFFDVGSNKYGVFMRVSEVKPTYRNSITVPYKVWAKFGHTFCKYSEEMKKIQEKQREKRAACEQLHQQQQQQQEETAAATLLLQGEEEGEED
On to B1, for which the binding entry is on record as “binds”.

B2: Nitric oxide-associated protein (protein, UniProt Q8NC60 1-698)
chain: MLPARLPFRLLSLFLRGSAPTAARHGLREPLLERRCAAASSFQHSSSLGRELPYDPVDTEGFGEGGDMQERFLFPEYILDPEPQPTREKQLQELQQQQEEEERQRQQRREERRQQNLRARSREHPVVGHPDPALPPSGVNCSGCGAELHCQDAGVPGYLPREKFLRTAEADGGLARTVCQRCWLLSHHRRALRLQVSREQYLELVSAALRRPGPSLVLYMVDLLDLPDALLPDLPALVGPKQLIVLGNKVDLLPQDAPGYRQRLRERLWEDCARAGLLLAPGHQGPQRPVKDEPQDGENPNPPNWSRTVVRDVRLISAKTGYGVEELISALQRSWRYRGDVYLVGATNAGKSTLFNTLLESDYCTAKGSEAIDRATISPWPGTTLNLLKFPICNPTPYRMFKRHQRLKKDSTQAEEDLSEQEQNQLNVLKKHGYVVGRVGRTFLYSEEQKDNIPFEFDADSLAFDMENDPVMGTHKSTKQVELTAQDVKDAHWFYDTPGITKENCILNLLTEKEVNIVLPTQSIVPRTFVLKPGMVLFLGAIGRIDFLQGNQSAWFTVVASNILPVHITSLDRADALYQKHAGHTLLQIPMGGKERMAGFPPLVAEDIMLKEGLGASEAVADIKFSSAGWVSVTPNFKDRLHLRGYTPEGTVLTVRPPLLPYIVNIKGQRIKKSVAYKTKKPPSLMYNVRKKKGKINV
For the molecule B2, the binding result is given as “binds”.

B3: Retinoic acid-induced 14 (protein, UniProt Q9P0K7-1 1-980)
chain: MKSLKAKFRKSDTNEWNKNDDRLLQAVENGDAEKVASLLGKKGASATKHDSEGKTAFHLAAAKGHVECLRVMITHGVDVTAQDTTGHSALHLAAKNSHHECIRKLLQSKCPAESVDSSGKTALHYAAAQGCLQAVQILCEHKSPINLKDLDGNIPLLLAVQNGHSEICHFLLDHGADVNSRNKSGRTALMLACEIGSSNAVEALIKKGADLNLVDSLGYNALHYSKLSENAGIQSLLLSKISQDADLKTPTKPKQHDQVSKISSERSGTPKKRKAPPPPISPTQLSDVSSPRSITSTPLSGKESVFFAEPPFKAEISSIRENKDRLSDSTTGADSLLDISSEADQQDLLSLLQAKVASLTLHNKELQDKLQAKSPKEAEADLSFDSYHSTQTDLGPSLGKPGETSPPDSKSSPSVLIHSLGKSTTDNDVRIQQLQEILQDLQKRLESSEAERKQLQVELQSRRAELVCLNNTEISENSSDLSQKLKETQSKYEEAMKEVLSVQKQMKLGLVSPESMDNYSHFHELRVTEEEINVLKQDLQNALEESERNKEKVRELEEKLVEREKGTVIKPPVEEYEEMKSSYCSVIENMNKEKAFLFEKYQEAQEEIMKLKDTLKSQMTQEASDEAEDMKEAMNRMIDELNKQVSELSQLYKEAQAELEDYRKRKSLEDVTAEYIHKAEHEKLMQLTNVSRAKAEDALSEMKSQYSKVLNELTQLKQLVDAQKENSVSITEHLQVITTLRTAAKEMEEKISNLKEHLASKEVEVAKLEKQLLEEKAAMTDAMVPRSSYEKLQSSLESEVSVLASKLKESVKEKEKVHSEVVQIRSEVSQVKREKENIQTLLKSKEQEVNELLQKFQQAQEELAEMKRYAESSSKLEEDKDKKINEMSKEVTKLKEALNSLSQLSYSTSSSKRQSQQLEALQQQVKQLQNQLAECKKQHQEVISVYRMHLLYAVQGQMDEDVQKVLKQILTMCKNQSQKK
Consider B3, for which the binding result is “binds”.

B4: Interferon-induced Mx protein (protein, UniProt P20591-1 1-662)
chain: MVVSEVDIAKADPAAASHPLLLNGDATVAQKNPGSVAENNLCSQYEEKVRPCIDLIDSLRALGVEQDLALPAIAVIGDQSSGKSSVLEALSGVALPRGSGIVTRCPLVLKLKKLVNEDKWRGKVSYQDYEIEISDASEVEKEINKAQNAIAGEGMGISHELITLEISSRDVPDLTLIDLPGITRVAVGNQPADIGYKIKTLIKKYIQRQETISLVVVPSNVDIATTEALSMAQEVDPEGDRTIGILTKPDLVDKGTEDKVVDVVRNLVFHLKKGYMIVKCRGQQEIQDQLSLSEALQREKIFFENHPYFRDLLEEGKATVPCLAEKLTSELITHICKSLPLLENQIKETHQRITEELQKYGVDIPEDENEKMFFLIDKVNAFNQDITALMQGEETVGEEDIRLFTRLRHEFHKWSTIIENNFQEGHKILSRKIQKFENQYRGRELPGFVNYRTFETIVKQQIKALEEPAVDMLHTVTDMVRLAFTDVSIKNFEEFFNLHRTAKSKIEDIRAEQEREGEKLIRLHFQMEQIVYCQDQVYRGALQKVREKELEEEKKKKSWDFGAFQSSSATDSSMEEIFQHLMAYHQEASKRISSHIPLIIQFFMLQTYGQQLQKAMLQLLQDKDTYSWLLKERSDTSDKRKFLKERLARLTQARRRLAQFPG
Take B4: the binding entry is listed as “binds”.

B5: KH-type splicing regulatory protein (protein, UniProt Q92945 1-711)
chain: MSDYSTGGPPPGPPPPAGGGGGAGGAGGGPPPGPPGAGDRGGGGPGGGGPGGGSAGGPSQPPGGGGPGIRKDAFADAVQRARQIAAKIGGDAATTVNNSTPDFGFGGQKRQLEDGDQPESKKLASQGDSISSQLGPIHPPPRTSMTEEYRVPDGMVGLIIGRGGEQINKIQQDSGCKVQISPDSGGLPERSVSLTGAPESVQKAKMMLDDIVSRGRGGPPGQFHDNANGGQNGTVQEIMIPAGKAGLVIGKGGETIKQLQERAGVKMILIQDGSQNTNVDKPLRIIGDPYKVQQACEMVMDILRERDQGGFGDRNEYGSRIGGGIDVPVPRHSVGVVIGRSGEMIKKIQNDAGVRIQFKQDDGTGPEKIAHIMGPPDRCEHAARIINDLLQSLRSGPPGPPGGPGMPPGGRGRGRGQGNWGPPGGEMTFSIPTHKCGLVIGRGGENVKAINQQTGAFVEISRQLPPNGDPNFKLFIIRGSPQQIDHAKQLIEEKIEGPLCPVGPGPGGPGPAGPMGPFNPGPFNQGPPGAPPHAGGPPPHQYPPQGWGNTYPQWQPPAPHDPSKAAAAAADPNAAWAAYYSHYYQQPPGPVPGPAPAPAAPPAQGEPPQPPPTGQSDYTKAWEEYYKKIGQQPQQPGAPPQQDYTKAWEEYYKKQAQVATGGGPGAPPGSQPDYSAAWAEYYRQQAAYYGQTPGPGGPQPPPTQQGQQQAQ
For the molecule B5, the binding entry is “binds”.

B6: Splicing factor, arginine/serine-rich 3 (protein, UniProt P84103 1-164)
chain: MHRDSCPLDCKVYVGNLGNNGNKTELERAFGYYGPLRSVWVARNPPGFAFVEFEDPRDAADAVRELDGRTLCGCRVRVELSNGEKRSRNRGPPPSWGRRPRDDYRRRSPPPRRRSPRRRSFSRSRSRSLSRDRRRERSLSRERNHKPSRSFSRSRSRSRSNERK
B6: the binding entry is on record as “binds”.

B7: Lasp-1 (protein, UniProt Q14847-1 1-261)
chain: MNPNCARCGKIVYPTEKVNCLDKFWHKACFHCETCKMTLNMKNYKGYEKKPYCNAHYPKQSFTMVADTPENLRLKQQSELQSQVRYKEEFEKNKGKGFSVVADTPELQRIKKTQDQISNIKYHEEFEKSRMGPSGGEGMEPERRDSQDGSSYRRPLEQQQPHHIPTSAPVYQQPQQQPVAQSYGGYKEPAAPVSIQRSAPGGGGKRYRAVYDYSAADEDEVSFQDGDTIVNVQQIDDGWMYGTVERTGDTGMLPANYVEAI
For B7, the binding result is on record as “binds”.

B8: Matrin 3 (protein, UniProt P43243 1-847)
chain: MSKSFQQSSLSRDSQGHGRDLSAAGIGLLAAATQSLSMPASLGRMNQGTARLASLMNLGMSSSLNQQGAHSALSSASTSSHNLQSIFNIGSRGPLPLSSQHRGDADQASNILASFGLSARDLDELSRYPEDKITPENLPQILLQLKRRRTEEGPTLSYGRDGRSATREPPYRVPRDDWEEKRHFRRDSFDDRGPSLNPVLDYDHGSRSQESGYYDRMDYEDDRLRDGERCRDDSFFGETSHNYHKFDSEYERMGRGPGPLQERSLFEKKRGAPPSSNIEDFHGLLPKGYPHLCSICDLPVHSNKEWSQHINGASHSRRCQLLLEIYPEWNPDNDTGHTMGDPFMLQQSTNPAPGILGPPPPSFHLGGPAVGPRGNLGAGNGNLQGPRHMQKGRVETSRVVHIMDFQRGKNLRYQLLQLVEPFGVISNHLILNKINEAFIEMATTEDAQAAVDYYTTTPALVFGKPVRVHLSQKYKRIKKPEGKPDQKFDQKQELGRVIHLSNLPHSGYSDSAVLKLAEPYGKIKNYILMRMKSQAFIEMETREDAMAMVDHCLKKALWFQGRCVKVDLSEKYKKLVLRIPNRGIDLLKKDKSRKRSYSPDGKESPSDKKSKTDGSQKTESSTEGKEQEEKSGEDGEKDTKDDQTEQEPNMLLESEDELLVDEEEAAALLESGSSVGDETDLANLGDVASDGKKEPSDKAVKKDGSASAAAKKKLKKVDKIEELDQENEAALENGIKNEENTEPGAESSENADDPNKDTSENADGQSDENKDDYTIPDEYRIGPYQPNVPVGIDYVIPKTGFYCKLCSLFYTNEEVAKNTHCSSLPHYQKLKKFLNKLAEERRQKKET
As to B8, the binding result is “binds”.

B9: Peroxiredoxin 2 (protein, UniProt P32119 1-198)
chain: MASGNARIGKPAPDFKATAVVDGAFKEVKLSDYKGKYVVLFFYPLDFTFVCPTEIIAFSNRAEDFRKLGCEVLGVSVDSQFTHLAWINTPRKEGGLGPLNIPLLADVTRRLSEDYGVLKTDEGIAYRGLFIIDGKGVLRQITVNDLPVGRSVDEALRLVQAFQYTDEHGEVCPAGWKPGSDTIKPNVDDSKEYFSKHN
Turning to B9, the binding entry is “binds”.
